These are yes or no findings as the source states them, for the method shown. Binding seen in cells or lysates may run through a third protein. Binding calls can cover weak binding; strength is not graded here. Sequences can lack the tags named with a protein.
Biological target: RRS1-R^WRKY+83 with C-terminal 6xHis/3xFLAG tag (Arabidopsis)
Assay: co-IP; transient coexpression in N. benthamiana; RRS1-R^WRKY+83 (6xHis/3xFLAG) precipitated with anti-FLAG magnetic beads, AvrRps4 variants (4xmyc) detected by blot

B1: full-length AvrRps4 with C-terminal 4xmyc tag (wild type) (protein, UniProt Q52432 1-220)
chain: MTRISTSSVNSSFSYSAPAEEAQNRVSSAPTNSSPPGTTTAVAQASEGQKKPGAVLSMHAQRLRQLCESSSHQYRQNALLAKSFDAQRLDINTQAGPSNSPHLNALNKLQQRDFKPAAGGLEIPFTPKSLLGGGKRVYQIGSSSRDVQVCPRGAGAALRQEIEDKQLMVNNLTDELQDAIDEANPAEIANTSQQLRHARADLADLQRRFAVLRNEDRRIN
- binding: binds

Source: PMC8685902, “Perception of structurally distinct effectors by the integrated WRKY domain of a plant immune receptor”
